Source: the supplement of paper PMC12823440, “Inhibitors supercharge kinase turnover through native proteolytic circuits” (Nature, 2025)
The list shows a part of the results. The calls rarely recur for the same compound in another form.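 In K562 cells expressing nanoluciferase-fused kinases, luminescence was recorded at 4 h intervals between 2 and 18 h, normalized as percent of control with DMSO at 100% and a positive control at 0%. A significant (2 sigma) signal drop marks a time point as decreased. The authors' rule for a hit is not shown and takes in more than the number of time points.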

The chains behind the UniProt entries cited, without tags or fusion partners. Where a name states a change or a piece, a line headed by the entry shows the natural chain unless it says otherwise.
UniProt P06241, whole entry, looked up: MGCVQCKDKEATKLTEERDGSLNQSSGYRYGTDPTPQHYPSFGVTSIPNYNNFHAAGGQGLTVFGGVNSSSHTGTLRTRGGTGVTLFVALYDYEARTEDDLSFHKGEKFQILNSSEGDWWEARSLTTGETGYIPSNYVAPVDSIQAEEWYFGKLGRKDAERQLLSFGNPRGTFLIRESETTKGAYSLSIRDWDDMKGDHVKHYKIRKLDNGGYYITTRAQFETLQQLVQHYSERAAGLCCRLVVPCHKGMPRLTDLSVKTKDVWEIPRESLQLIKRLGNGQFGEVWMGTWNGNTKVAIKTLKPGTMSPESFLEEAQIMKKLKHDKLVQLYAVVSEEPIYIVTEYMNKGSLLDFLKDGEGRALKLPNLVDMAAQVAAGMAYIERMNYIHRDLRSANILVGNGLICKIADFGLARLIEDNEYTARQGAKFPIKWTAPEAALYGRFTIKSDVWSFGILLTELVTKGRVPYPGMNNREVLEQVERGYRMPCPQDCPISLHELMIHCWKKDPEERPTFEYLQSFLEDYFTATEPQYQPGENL
UniProt P23458: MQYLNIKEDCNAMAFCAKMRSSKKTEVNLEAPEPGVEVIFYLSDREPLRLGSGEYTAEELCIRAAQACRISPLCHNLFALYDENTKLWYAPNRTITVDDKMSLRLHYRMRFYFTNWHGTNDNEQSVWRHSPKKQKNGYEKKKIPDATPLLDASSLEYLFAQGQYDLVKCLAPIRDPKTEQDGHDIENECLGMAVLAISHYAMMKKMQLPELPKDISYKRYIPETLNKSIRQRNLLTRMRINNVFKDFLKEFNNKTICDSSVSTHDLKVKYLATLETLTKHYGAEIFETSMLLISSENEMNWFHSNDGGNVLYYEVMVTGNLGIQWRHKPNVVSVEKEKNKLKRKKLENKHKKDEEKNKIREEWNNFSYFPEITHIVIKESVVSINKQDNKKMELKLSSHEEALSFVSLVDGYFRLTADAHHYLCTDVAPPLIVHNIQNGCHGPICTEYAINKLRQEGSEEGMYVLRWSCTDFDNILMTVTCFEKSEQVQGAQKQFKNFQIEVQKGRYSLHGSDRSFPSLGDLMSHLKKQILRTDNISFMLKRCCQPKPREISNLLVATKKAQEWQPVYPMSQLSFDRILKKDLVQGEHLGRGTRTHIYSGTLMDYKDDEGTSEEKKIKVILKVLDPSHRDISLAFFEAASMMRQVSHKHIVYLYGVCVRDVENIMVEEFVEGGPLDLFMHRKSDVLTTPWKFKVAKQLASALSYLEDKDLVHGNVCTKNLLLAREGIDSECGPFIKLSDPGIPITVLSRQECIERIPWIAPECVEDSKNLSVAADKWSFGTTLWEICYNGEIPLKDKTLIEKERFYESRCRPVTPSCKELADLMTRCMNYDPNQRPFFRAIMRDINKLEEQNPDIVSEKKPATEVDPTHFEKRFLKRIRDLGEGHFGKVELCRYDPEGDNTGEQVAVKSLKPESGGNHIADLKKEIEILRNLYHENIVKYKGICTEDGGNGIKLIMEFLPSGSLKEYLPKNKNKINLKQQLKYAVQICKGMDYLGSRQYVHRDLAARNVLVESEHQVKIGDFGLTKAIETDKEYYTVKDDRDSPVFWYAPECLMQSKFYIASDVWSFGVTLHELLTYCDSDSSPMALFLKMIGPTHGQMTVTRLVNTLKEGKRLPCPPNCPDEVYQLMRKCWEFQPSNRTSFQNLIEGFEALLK
UniProt P06239: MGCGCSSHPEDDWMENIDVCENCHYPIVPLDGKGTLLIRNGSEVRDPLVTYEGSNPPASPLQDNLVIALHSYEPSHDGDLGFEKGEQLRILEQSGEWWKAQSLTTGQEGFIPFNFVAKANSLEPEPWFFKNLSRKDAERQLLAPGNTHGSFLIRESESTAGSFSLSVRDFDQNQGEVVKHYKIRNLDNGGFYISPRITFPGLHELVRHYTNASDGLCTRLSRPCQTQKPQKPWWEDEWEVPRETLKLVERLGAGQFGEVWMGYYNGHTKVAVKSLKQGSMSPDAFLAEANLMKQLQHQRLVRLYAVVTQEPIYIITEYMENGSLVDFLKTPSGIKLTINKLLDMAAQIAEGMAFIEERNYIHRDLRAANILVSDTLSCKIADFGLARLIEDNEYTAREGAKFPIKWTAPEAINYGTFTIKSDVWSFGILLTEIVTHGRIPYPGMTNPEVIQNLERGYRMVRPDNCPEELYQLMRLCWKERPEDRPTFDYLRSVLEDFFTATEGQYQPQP
UniProt P53671: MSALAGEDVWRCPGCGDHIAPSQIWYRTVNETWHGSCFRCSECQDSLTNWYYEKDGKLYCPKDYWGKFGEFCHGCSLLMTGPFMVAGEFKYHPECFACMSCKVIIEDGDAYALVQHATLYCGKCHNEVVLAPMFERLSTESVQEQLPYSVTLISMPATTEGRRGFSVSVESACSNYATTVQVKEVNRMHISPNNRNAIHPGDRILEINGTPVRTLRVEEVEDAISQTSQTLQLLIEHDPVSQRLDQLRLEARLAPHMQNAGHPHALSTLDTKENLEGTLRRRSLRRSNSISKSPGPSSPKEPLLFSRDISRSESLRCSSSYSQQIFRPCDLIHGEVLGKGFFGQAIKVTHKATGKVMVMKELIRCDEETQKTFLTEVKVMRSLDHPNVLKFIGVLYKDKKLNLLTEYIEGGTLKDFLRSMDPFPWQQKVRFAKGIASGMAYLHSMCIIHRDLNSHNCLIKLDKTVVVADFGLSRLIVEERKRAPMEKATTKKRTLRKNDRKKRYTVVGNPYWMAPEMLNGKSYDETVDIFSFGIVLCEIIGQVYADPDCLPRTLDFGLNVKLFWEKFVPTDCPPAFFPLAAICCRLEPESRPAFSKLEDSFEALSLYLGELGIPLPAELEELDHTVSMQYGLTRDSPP
UniProt Q8IWU2: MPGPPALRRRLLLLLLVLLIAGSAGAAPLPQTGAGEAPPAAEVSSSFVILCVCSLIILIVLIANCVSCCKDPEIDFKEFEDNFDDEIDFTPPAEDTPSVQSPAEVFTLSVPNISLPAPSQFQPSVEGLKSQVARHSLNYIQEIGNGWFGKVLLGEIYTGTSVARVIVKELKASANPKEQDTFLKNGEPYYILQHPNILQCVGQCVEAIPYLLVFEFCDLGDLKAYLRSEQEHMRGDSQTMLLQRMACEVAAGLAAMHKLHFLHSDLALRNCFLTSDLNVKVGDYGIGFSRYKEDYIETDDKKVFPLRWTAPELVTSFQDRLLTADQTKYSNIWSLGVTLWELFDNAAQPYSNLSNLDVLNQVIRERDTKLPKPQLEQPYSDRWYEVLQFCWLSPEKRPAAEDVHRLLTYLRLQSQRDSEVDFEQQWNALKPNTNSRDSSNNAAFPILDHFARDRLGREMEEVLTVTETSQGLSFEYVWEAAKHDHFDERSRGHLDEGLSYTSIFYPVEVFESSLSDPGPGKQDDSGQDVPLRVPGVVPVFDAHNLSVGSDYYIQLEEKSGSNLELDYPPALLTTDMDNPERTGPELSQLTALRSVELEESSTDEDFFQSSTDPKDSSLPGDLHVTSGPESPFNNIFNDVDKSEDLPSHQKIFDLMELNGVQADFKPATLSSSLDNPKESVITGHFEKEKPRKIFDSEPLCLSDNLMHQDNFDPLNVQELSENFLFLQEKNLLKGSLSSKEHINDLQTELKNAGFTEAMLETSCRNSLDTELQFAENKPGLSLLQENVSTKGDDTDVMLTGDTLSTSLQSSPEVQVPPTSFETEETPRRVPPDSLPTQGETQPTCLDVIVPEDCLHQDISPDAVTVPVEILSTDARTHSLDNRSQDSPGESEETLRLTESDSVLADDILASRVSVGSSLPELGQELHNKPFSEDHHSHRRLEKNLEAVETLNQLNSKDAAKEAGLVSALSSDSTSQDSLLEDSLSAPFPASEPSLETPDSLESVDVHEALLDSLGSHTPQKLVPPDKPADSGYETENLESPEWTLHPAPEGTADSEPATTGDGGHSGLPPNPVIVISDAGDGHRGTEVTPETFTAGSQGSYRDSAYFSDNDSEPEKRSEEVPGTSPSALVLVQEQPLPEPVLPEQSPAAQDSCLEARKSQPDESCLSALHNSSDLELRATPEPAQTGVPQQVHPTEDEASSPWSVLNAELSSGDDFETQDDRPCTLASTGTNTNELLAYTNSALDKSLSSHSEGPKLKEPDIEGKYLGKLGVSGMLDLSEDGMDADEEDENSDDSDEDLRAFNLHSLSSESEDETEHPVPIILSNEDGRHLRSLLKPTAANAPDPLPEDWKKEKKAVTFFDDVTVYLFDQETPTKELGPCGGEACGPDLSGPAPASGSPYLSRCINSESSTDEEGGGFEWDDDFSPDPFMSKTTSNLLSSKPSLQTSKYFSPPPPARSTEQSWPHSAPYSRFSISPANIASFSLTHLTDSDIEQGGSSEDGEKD
UniProt P07948: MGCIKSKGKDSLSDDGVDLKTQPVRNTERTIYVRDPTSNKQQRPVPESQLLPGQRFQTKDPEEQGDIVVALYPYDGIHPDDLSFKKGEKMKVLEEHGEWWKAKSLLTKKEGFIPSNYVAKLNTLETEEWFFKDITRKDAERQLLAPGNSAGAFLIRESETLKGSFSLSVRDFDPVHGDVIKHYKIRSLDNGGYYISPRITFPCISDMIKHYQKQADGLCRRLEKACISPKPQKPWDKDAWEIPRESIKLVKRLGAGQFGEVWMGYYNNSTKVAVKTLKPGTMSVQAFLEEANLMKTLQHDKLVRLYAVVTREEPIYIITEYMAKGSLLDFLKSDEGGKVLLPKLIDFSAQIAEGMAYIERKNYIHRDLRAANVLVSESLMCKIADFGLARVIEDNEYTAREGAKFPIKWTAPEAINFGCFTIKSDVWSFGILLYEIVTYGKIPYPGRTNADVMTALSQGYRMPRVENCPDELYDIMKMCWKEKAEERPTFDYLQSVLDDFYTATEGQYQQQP
UniProt P31152, whole entry: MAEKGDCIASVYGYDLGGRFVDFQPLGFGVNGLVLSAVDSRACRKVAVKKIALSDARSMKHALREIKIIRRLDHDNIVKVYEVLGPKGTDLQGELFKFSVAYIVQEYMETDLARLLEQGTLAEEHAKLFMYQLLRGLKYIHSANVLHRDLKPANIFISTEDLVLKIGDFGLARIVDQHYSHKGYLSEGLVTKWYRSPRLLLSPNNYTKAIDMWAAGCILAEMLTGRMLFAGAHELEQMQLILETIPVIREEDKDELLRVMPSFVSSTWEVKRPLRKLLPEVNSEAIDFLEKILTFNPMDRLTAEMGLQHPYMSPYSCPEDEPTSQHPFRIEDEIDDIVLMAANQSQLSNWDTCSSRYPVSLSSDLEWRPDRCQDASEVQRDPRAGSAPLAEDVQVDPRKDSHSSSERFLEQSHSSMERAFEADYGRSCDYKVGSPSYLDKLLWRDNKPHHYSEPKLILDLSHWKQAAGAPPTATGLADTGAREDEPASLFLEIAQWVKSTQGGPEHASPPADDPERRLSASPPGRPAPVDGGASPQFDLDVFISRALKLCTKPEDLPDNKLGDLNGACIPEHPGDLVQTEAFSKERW
UniProt P49137, whole entry, looked up: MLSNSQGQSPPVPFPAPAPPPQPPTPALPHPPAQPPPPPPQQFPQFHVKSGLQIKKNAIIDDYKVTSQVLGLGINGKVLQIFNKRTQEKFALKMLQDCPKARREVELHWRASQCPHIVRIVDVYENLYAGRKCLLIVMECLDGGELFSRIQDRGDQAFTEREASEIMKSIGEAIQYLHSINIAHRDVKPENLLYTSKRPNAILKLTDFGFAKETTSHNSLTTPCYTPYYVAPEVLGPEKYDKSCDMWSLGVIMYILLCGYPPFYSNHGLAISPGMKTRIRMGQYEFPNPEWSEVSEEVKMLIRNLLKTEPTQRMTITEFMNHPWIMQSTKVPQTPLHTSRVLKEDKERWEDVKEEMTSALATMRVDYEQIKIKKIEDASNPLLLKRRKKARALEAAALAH
UniProt Q9BUB5: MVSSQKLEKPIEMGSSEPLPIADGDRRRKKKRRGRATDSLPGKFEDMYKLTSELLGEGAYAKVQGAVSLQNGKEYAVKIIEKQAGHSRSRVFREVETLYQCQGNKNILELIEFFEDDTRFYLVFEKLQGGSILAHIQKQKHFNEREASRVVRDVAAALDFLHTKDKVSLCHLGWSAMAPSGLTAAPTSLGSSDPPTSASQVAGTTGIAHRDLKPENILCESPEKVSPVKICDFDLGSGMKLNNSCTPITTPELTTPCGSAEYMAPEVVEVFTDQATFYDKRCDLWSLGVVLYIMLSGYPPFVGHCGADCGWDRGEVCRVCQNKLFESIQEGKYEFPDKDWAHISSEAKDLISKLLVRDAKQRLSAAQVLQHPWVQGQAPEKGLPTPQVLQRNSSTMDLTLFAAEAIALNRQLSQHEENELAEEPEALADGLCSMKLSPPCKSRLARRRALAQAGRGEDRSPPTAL

Tests used:
Experiment in all cases: number of time points (of 5) at which kinase-Nluc abundance scored as decreased, DMSO-normalised (count); higher = more persistent destabilization
Conditions in all cases: K562; 2-18 h
[1] = biological target: FLT3 (UniProt P36888)
[2] = biological target: FYN (UniProt P06241)
[3] = biological target: GSK3A (UniProt P49840)
[4] = biological target: HER2 (UniProt P04626)
[5] = biological target: INSRR (UniProt P14616)
[6] = biological target: IRAK3 (UniProt Q9Y616)
[7] = biological target: JAK1 (UniProt P23458)
[8] = biological target: LCK (UniProt P06239)
[9] = biological target: LIMK1 (UniProt P53667)
[10] = biological target: LIMK2 (UniProt P53671)
[11] = biological target: LMTK2 (UniProt Q8IWU2)
[12] = biological target: LYN (UniProt P07948)
[13] = biological target: MAP2K1 (UniProt Q02750)
[14] = biological target: MAP2K2 (UniProt P36507)
[15] = biological target: MAP4K2 (UniProt Q12851)
[16] = biological target: MAPK1 (UniProt P28482)
[17] = biological target: MAPK4 (UniProt P31152)
[18] = biological target: MAPKAPK2 (UniProt P49137)
[19] = biological target: MKNK1 (UniProt Q9BUB5)
[20] = biological target: NTRK2 (UniProt Q16620)

Measured: number of time points

COc1cc(S(C)(=O)=O)ccc1Nc1nc2ccc(-c3ccc(NC(=O)[C@H](C)c4ccc(F)cc4)cc3)cn2n1 [Empesertib] (10 µM)
0: [1] | [2] | [3] | [4] | [5] | [6] | [7] | [8] | [9] | [10] | [11] | [12] | [13] | [14] | [15] | [16] | [17] | [18] | [19] | [20]

CCn1c(=O)c(-c2ccc(-c3cncc(C)n3)cc2Cl)cc2cnc(NCCC3CCN(C)CC3)nc21 (10 µM)
0: [1] | [2] | [3] | [4] | [5] | [6] | [7] | [8] | [9] | [10] | [11] | [12] | [13] | [14] | [15] | [16] | [17] | [18] | [19] | [20]

Cc1cc(O)c(C(C)C)cc1N=O [Poloxime] (10 µM)
0: [1] | [3] | [4] | [5] | [6] | [7] | [8] | [9] | [10] | [11] | [12] | [13] | [14] | [15] | [16] | [17] | [18] | [19] | [20]
2: [2]

COc1ccc(C(=O)Nc2sc3c(c2C(N)=O)CCCC3)cc1OC (10 µM)
0: [1] | [2] | [3] | [4] | [5] | [6] | [7] | [8] | [9] | [10] | [11] | [12] | [13] | [14] | [15] | [16] | [17] | [18] | [19] | [20]

CC(C)=CC(=O)CCC(=O)N1CCN(Cc2cc3nc(-c4cccc5[nH]ncc45)nc(N4CCOCC4)c3s2)CC1 (10 µM)
0: [1] | [2] | [3] | [5] | [6] | [7] | [8] | [9] | [10] | [11] | [12] | [13] | [14] | [15] | [16] | [17] | [18] | [19] | [20]
5: [4]

Cn1cc(Nc2nccc(N3C[C@H]4CC[C@@H](C3)N4C(=O)[C@@H]3CC3(F)F)n2)cn1 (10 µM)
4: [9]
0: [1] | [2] | [3] | [4] | [5] | [6] | [7] | [8] | [10] | [11] | [12] | [13] | [14] | [15] | [16] | [17] | [18] | [19] | [20]

O=C1NC(=O)/C(=C/c2ccc3c(c2)OC(F)(F)O3)S1 (10 µM)
0: [1] | [2] | [3] | [4] | [5] | [6] | [7] | [8] | [9] | [10] | [11] | [12] | [13] | [14] | [15] | [16] | [17] | [18] | [19] | [20]

COc1c(NC(=O)C(=O)c2ccc(OCCN3CCOCC3)c3ccccc23)cc(C(C)(C)C)cc1NS(C)(=O)=O (2.5 µM)
0: [1] | [2] | [3] | [4] | [5] | [6] | [7] | [8] | [9] | [10] | [11] | [12] | [13] | [14] | [15] | [16] | [17] | [18] | [19] | [20]

CCN1CCN(Cc2ccc(Nc3ncc(F)c(-c4cc(F)c5nc(CO)n(C(C)C)c5c4)n3)nc2)CC1 [Abemaciclib metabolite M20] (2 µM)
0: [1] | [2] | [3] | [4] | [5] | [6] | [7] | [8] | [9] | [10] | [11] | [12] | [13] | [14] | [15] | [16] | [17] | [18] | [19] | [20]

Cc1ccc(-c2c(C(=O)CCl)n(CCCO)c3ncnc(N)c23)cc1 (10 µM)
4: [10]
3: [4] | [6] | [9]
1: [20]
2: [11] | [12] | [17]
5: [2]
0: [1] | [3] | [5] | [7] | [8] | [13] | [14] | [15] | [16] | [18] | [19]

Nc1ncnc2c1c(-c1ccc(Oc3ccccc3)cc1)nn2C1CCCNC1 (racemic) (2.5 µM)
0: [1] | [2] | [3] | [4] | [5] | [6] | [7] | [8] | [9] | [10] | [11] | [12] | [13] | [14] | [15] | [16] | [17] | [18] | [19] | [20]

C[C@@]1(O)CCC[C@H]1n1c(=O)c(C(F)F)cc2cnc(NC3CCN(S(C)(=O)=O)CC3)nc21 (2.5 µM)
2: [11]
1: [1]
0: [2] | [3] | [4] | [5] | [6] | [7] | [8] | [9] | [10] | [12] | [13] | [14] | [15] | [16] | [17] | [18] | [19] | [20]

CNC(=O)Nc1ccc(-c2cc(-c3ccnc(Nc4ccc(C)c(S(=O)(=O)N(C)C)c4)n3)ccn2)cc1 [hSMG-1 inhibitor 11e] (2.5 µM)
1: [20]
0: [3] | [4] | [5] | [6] | [8] | [9] | [10] | [11] | [12] | [13] | [14] | [15] | [16] | [17] | [18] | [19]
4: [1]
2: [7]
3: [2]

COc1ccc(C2CC(c3ccccc3)=NN2c2ccc(S(N)(=O)=O)cc2)cc1 (stereo not given) (10 µM)
0: [1] | [2] | [3] | [4] | [5] | [6] | [7] | [8] | [9] | [10] | [11] | [12] | [13] | [14] | [15] | [16] | [17] | [18] | [19] | [20]

N#Cc1c(-c2ccccc2)cc(-c2cc(Br)ccc2O)[nH]c1=O (10 µM)
0: [1] | [2] | [3] | [4] | [5] | [6] | [7] | [8] | [9] | [10] | [11] | [12] | [13] | [14] | [15] | [16] | [17] | [18] | [19] | [20]

Structural class, those above containing a thiophene ring, fused or not (two)
COc1ccc(C(=O)Nc2sc3c(c2C(N)=O)CCCC3)cc1OC (10 µM)
0: [1] | [2] | [3] | [4] | [5] | [6] | [7] | [8] | [9] | [10] | [11] | [12] | [13] | [14] | [15] | [16] | [17] | [18] | [19] | [20]

CC(C)=CC(=O)CCC(=O)N1CCN(Cc2cc3nc(-c4cccc5[nH]ncc45)nc(N4CCOCC4)c3s2)CC1 (10 µM)
0: [1] | [2] | [3] | [5] | [6] | [7] | [8] | [9] | [10] | [11] | [12] | [13] | [14] | [15] | [16] | [17] | [18] | [19] | [20]
5: [4]

Following part:

CC/C=C\C/C=C\C/C=C\CCCCCCCC(=O)O [α-Linolenic acid] (10 µM)
0: [1] | [2] | [3] | [4] | [5] | [6] | [7] | [8] | [9] | [10] | [11] | [12] | [13] | [14] | [15] | [16] | [17] | [18] | [19] | [20]

O=C(NCCCNc1nc(Nc2cccc(NC(=O)N3CCCC3)c2)ncc1I)c1cccs1 (2.5 µM)
0: [1] | [2] | [3] | [4] | [5] | [6] | [7] | [8] | [9] | [10] | [11] | [12] | [13] | [14] | [15] | [16] | [17] | [18] | [19] | [20]

Nc1cc(Nc2ccc(S(N)(=O)=O)cc2)ncn1 (10 µM)
0: [1] | [2] | [3] | [4] | [6] | [7] | [8] | [9] | [10] | [11] | [12] | [13] | [14] | [15] | [16] | [17] | [18] | [19] | [20]
1: [5]

CN1CCN(c2ccc(Nc3ncc4nc(Nc5ccccc5)n([C@@H]5CCN(S(=O)(=O)C6CC6)C5)c4n3)cc2)CC1 (2.5 µM)
2: [7]
0: [1] | [2] | [3] | [4] | [5] | [6] | [8] | [9] | [10] | [11] | [12] | [13] | [14] | [15] | [16] | [17] | [18] | [19] | [20]

COc1cc(F)c(F)c(Nc2ccc(I)cc2F)c1NS(=O)(=O)C1(C[C@H](O)CO)CC1 [Refametinib] (10 µM)
0: [1] | [2] | [3] | [4] | [6] | [7] | [8] | [9] | [10] | [11] | [12] | [13] | [14] | [15] | [16] | [18] | [19] | [20]
1: [17]
2: [5]

c1cn2cc(-c3ccc4cn[nH]c4c3)nc(Nc3ccc(N4CCOCC4)cc3)c2n1 [Entospletinib] (10 µM)
0: [1] | [2] | [3] | [4] | [5] | [6] | [7] | [8] | [9] | [10] | [11] | [12] | [13] | [14] | [15] | [16] | [17] | [18] | [19] | [20]

CCN(CC)S(=O)(=O)c1ccc(OC)c(N2CCN(C(=O)c3ccc(F)cc3C(F)(F)F)CC2)c1 (10 µM)
0: [1] | [2] | [3] | [4] | [5] | [6] | [7] | [8] | [9] | [10] | [11] | [12] | [13] | [14] | [15] | [16] | [17] | [18] | [19] | [20]
